Results are given in words; binding and its absence hold for the method and conditions named. In cells and extracts the contact can be indirect. Some results given as binding are weak or reduced against the parent protein; the word gives no strength.
Molecular target: T1, MAPL (mouse, endogenous in liver) (mouse (endogenous in liver)) (UniProt Q8VCM5)
T1 sequence: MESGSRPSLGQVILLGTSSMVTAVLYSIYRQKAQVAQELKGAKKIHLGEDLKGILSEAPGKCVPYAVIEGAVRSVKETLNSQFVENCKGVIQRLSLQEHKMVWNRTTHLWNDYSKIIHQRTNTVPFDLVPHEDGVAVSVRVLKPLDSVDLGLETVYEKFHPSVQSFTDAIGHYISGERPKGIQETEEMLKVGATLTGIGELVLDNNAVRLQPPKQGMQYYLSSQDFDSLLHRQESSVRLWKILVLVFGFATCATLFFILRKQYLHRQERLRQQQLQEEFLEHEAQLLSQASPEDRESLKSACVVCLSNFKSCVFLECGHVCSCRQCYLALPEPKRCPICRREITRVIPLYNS
Assay: co-IP

binding: binds
B1: ABCD3 (mouse, endogenous in liver) (protein, UniProt P55096 1-659)
chain: MAAFSKYLTARNTSLAGAAFLLLCLLHKRRRALGLHGKKSGKPPLQNNEKEGKKERAVVDKVFLSRLSQILKIMVPRTFCKETGYLLLIAVMLVSRTYCDVWMIQNGTLIESGIIGRSSKDFKRYLFNFIAAMPLISLVNNFLKYGLNELKLCFRVRLTRYLYEEYLQAFTYYKMGNLDNRIANPDQLLTQDVEKFCNSVVDLYSNLSKPFLDIVLYIFKLTSAIGAQGPASMMAYLLVSGLFLTRLRRPIGKMTIMEQKYEGEYRYVNSRLITNSEEIAFYNGNKREKQTIHSVFRKLVEHLHNFIFFRFSMGFIDSIIAKYVATVVGYLVVSRPFLDLAHPRHLHSTHSELLEDYYQSGRMLLRMSQALGRIVLAGREMTRLAGFTARITELMQVLKDLNHGRYERTMVSQQEKGIEGAQASPLVPGAGEIINTDNIIKFDHVPLATPNGDILIQDLSFEVRSGANVLICGPNGCGKSSLFRVLGELWPLFGGRLTKPERGKLFYVPQRPYMTLGTLRDQVIYPDGKEDQKKRGISDQVLKEYLDNVQLGHILEREGGWDSVQDWMDVLSGGEKQRMAMARLFYHKPQFAILDECTSAVSVDVEDYIYSHCRKVGITLFTVSHRKSLWKHHEYYLHMDGRGNYEFKKITEDTVEFGS
